Some entries share one result that the patent states for a list of compounds.
What was measured:
[1] = test system: diamondback moth (Plutella xylostella); assay: Test A: control of diamondback moth on radish plant, foliar spray; assay type: in vivo; conditions: 6 days, very good to excellent levels of control efficacy
[2] = test system: fall armyworm (Spodoptera frugiperda); assay: Test B: control of fall armyworm on maize plant, foliar spray; assay type: in vivo; conditions: very good to excellent levels of control efficacy

Row | Structure (SMILES) | control efficacy: feeding damage (40% or less feeding damage and/or 100% mortality) ([1]; sprayed at 10 ppm) | control efficacy: feeding damage (40% or less feeding damage and/or 100% mortality) ([1]; sprayed at 50 ppm) | control efficacy: feeding damage (40% or less feeding damage and/or 100% mortality) ([2]; sprayed at 10 ppm) | control efficacy: feeding damage (40% or less feeding damage and/or 100% mortality) ([2]; sprayed at 50 ppm)
1 | CCn1ccn2c(=O)c(-c3cccc(-c4ccc(C(F)(F)F)cc4Cl)c3)c([O-])[n+](Cc3cnc(Cl)s3)c12 [Compound 334] | ≤ 40% | ≤ 40% | ≤ 40% | ≤ 40%
2 | O=c1c(-c2ccccc2F)c([O-])[n+](Cc2cnc(Cl)s2)c2c3ccsc3ccn12 [Compound 357] | ≤ 40% |  |  | 
3 | O=c1c(-c2ccccc2)c([O-])[n+](Cc2cnc(Cl)s2)c2c3ccsc3ccn12 [Compound 356] | ≤ 40% |  |  | 
4 | O=c1c(-c2ccccc2F)c([O-])[n+](Cc2cnc(Cl)s2)c2c3ccccc3ccn12 [Compound 171] | ≤ 40% |  |  | ≤ 40%
5 | CCn1ccn2c(=O)c(-c3cccc(C(F)(F)F)c3)c([O-])[n+](Cc3cnc(Cl)s3)c12 [Compound 340] | ≤ 40% |  |  | 
6 | O=c1c(-c2cccc(OC(F)(F)F)c2)c([O-])[n+](Cc2cnc(Cl)s2)c2c3ccsc3ccn12 [Compound 391] |  |  | ≤ 40% | 
7 | O=c1c(-c2cccc(C(F)(F)F)c2)c([O-])[n+](Cc2cnc(Cl)s2)c2c3ccccc3ccn12 [Compound 172] |  | ≤ 40% |  | ≤ 40%
